# Assay results: the supplement of paper PMC8728848
# The list shows a part of the results.
# B1: SP15308B-bot-339-22-339 (Bacteroides ovatus) (protein)
# chain: NEWEDEQYEQYVSFKAPIASGSDGVTTIYVRYKDNGKVTYQLPIIVSGSTVNSQDRDIHIAVDKDTLKTLNIERFSLYRPELWYTEMEEDKYEFPETVHIPAGSCVELLNIDFNLQDIDMLEKWVLPLTIVDDGSYAYQSHPRKNYAKALLKVVPFNNYSGSYTASSMKVYTYINGKPDTNARTTDKRTGYVVDNNSIFFYAGLINEDMDKDMRKKYKINVHFKEDGTLDMKQDDPSNEMEFELIGTPTYSSTSVMDATRPYLERRYVQIMFEYDFQDFTYGGSGTEVIPIKYRVAGSMTLLRNINTQIPDEDQQIEW
# Assays:
# Experiment in all cases: glycan array binding signal (z-score within array); higher = stronger binding
# Details in all cases: glycan notation: IUPAC condensed, linker removed
# [1] = target: Neu5Gc(a2-8)Neu5Gc(a2-3)Gal(b1-4)GlcNAc(b1-3)Gal(b1-4)GlcNAc
# In short: (§1)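 The binding signal is a Z-score computed within each array. Data were drawn from 3228 arrays in the Consortium for Functional Glycomics database, restricted to those with a known protein sequence. Scores were averaged over arrays of the same protein sequence at different concentrations or buffers, and over linkers, and negative values can be taken as non-binding.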
# [2] = target: Neu5Gc(a2-8)Neu5Gc(a2-6)Gal(b1-4)GlcNAc
# In short: as §1
# [3] = target: Neu5Gc(b2-6)Gal(b1-4)GlcNAc
# In short: as §1
binder,measurement,setting,value
B1,glycan array binding signal (z-score),[1],-0.343
same,glycan array binding signal (z-score),[2],-0.21
same,glycan array binding signal (z-score),[3],0.247
